# Test results reported in the M2OR odorant receptor database.
# The entries are a selection whose mix differs from that of the whole data set. The calls were merged from several studies; some rest on single wells.
# Legend:
# Settings in all cases: stereoisomer not certain
# [1] = molecular target: T1, OR2AG1 (Homo sapiens) (UniProt Q9H205)
# T1 sequence (whole entry): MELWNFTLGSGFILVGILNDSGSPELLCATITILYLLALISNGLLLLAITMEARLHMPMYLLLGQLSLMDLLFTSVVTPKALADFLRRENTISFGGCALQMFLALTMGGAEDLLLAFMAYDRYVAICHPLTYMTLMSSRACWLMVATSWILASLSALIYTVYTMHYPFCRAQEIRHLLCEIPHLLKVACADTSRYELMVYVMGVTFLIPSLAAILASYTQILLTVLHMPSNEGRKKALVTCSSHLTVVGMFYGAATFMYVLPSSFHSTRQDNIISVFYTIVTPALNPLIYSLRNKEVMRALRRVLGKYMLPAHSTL
# Summary of the method: (§1)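 Each entry records the cell line, G-protein, co-transfected protein and tags used. Methods varied with the source, often transient luciferase assays in mammalian cell lines. A receptor–molecule pair is called responsive (active) if the original authors judged its signal statistically different from baseline and non-responsive (inactive) otherwise.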
# [2] = molecular target: T2, OR2AG2 (Homo sapiens) (UniProt A6NM03)
# T2 sequence (whole entry): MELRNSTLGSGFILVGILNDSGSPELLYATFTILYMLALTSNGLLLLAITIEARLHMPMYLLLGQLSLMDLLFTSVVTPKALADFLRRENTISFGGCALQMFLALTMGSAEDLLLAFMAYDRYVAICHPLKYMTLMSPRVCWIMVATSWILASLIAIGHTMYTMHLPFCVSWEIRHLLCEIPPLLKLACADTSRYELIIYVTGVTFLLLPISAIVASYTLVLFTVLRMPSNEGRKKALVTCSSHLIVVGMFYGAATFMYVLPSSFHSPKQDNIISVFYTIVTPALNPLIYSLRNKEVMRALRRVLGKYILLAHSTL
# Summary of the method: as §1
# [3] = molecular target: T3, OR2AP1 (Homo sapiens) (UniProt Q8NGE2)
# T3 sequence (whole entry): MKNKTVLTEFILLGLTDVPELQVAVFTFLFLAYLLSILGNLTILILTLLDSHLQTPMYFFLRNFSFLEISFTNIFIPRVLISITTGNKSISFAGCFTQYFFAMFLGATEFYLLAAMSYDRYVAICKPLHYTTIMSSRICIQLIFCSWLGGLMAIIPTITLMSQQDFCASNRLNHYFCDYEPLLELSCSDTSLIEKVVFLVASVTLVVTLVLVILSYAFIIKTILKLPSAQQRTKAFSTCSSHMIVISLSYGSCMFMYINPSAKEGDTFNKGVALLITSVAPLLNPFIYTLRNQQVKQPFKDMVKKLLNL
# Summary of the method: as §1
# [4] = molecular target: T4, OR2AT4 (Homo sapiens) (UniProt A6NND4)
# T4 sequence (whole entry): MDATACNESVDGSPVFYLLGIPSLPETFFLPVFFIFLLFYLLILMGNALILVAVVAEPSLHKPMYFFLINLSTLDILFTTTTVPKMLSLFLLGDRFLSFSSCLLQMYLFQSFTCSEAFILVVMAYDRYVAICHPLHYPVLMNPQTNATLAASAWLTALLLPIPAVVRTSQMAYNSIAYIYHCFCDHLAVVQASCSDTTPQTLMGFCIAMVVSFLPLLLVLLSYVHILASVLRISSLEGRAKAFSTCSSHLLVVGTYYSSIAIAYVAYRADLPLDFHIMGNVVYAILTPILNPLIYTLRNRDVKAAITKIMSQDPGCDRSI
# Summary of the method: as §1
# [5] = molecular target: T5, OR2B11 (Homo sapiens) (UniProt Q5JQS5)
# T5 sequence (whole entry): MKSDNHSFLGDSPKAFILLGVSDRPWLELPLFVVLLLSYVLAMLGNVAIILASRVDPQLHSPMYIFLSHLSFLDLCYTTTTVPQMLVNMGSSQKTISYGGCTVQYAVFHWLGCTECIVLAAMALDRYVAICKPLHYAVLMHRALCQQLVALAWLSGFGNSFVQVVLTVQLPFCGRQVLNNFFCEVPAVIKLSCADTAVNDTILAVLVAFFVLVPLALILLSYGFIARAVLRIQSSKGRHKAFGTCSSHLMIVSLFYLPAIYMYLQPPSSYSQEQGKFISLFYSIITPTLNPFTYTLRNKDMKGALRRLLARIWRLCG
# Summary of the method: as §1
# [6] = molecular target: T6, OR2B2 (Homo sapiens) (UniProt Q9GZK3)
# T6 sequence (whole entry): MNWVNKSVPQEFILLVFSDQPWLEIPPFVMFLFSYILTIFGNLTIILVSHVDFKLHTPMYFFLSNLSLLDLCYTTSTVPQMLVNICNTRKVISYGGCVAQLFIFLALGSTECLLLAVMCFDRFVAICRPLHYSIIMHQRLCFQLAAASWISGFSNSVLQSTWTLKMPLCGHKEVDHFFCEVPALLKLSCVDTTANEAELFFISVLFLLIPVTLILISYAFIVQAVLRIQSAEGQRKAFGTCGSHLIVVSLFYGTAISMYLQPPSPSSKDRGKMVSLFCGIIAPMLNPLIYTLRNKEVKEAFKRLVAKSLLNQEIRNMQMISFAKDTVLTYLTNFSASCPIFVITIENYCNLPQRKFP
# Summary of the method: as §1
# [7] = molecular target: T7, OR2B3 (Homo sapiens) (UniProt O76000)
# T7 sequence (whole entry): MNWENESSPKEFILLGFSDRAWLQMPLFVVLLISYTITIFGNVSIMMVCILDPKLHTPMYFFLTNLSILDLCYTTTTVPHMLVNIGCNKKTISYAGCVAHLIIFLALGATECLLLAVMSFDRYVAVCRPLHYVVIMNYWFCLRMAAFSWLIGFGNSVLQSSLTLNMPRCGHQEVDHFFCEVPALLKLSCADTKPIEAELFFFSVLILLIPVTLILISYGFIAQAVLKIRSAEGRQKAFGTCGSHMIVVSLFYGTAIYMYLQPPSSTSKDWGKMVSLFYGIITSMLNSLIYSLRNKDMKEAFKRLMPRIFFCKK
# Summary of the method: as §1
SMILES,odorant receptor agonist call [1],odorant receptor agonist call [2],odorant receptor agonist call [3],odorant receptor agonist call [4],odorant receptor agonist call [5],odorant receptor agonist call [6],odorant receptor agonist call [7]
COC(=O)c1ccccc1,inactive,inactive,inactive,inactive,inactive,inactive,active
CC(C)=CCCC(C)=CC=O,inactive,inactive,inactive,inactive,inactive,inactive,inactive
O=C1CCCCC1,inactive,inactive,inactive,inactive,inactive,inactive,inactive
COc1ccccc1O,inactive,inactive,inactive,inactive,inactive,inactive,inactive
CCCCCCCCCCC=O,inactive,inactive,inactive,inactive,inactive,inactive,inactive
O=CCc1ccccc1,inactive,inactive,inactive,inactive,inactive,inactive,inactive
CC1COCc2cc3c(cc21)C(C)(C)C(C)C3(C)C (stereo not given),active,active,active,active,active,active,active
C=CC(C)(O)CCC=C(C)C (stereo not given),inactive,inactive,inactive,inactive,inactive,inactive,inactive
CCCCCCCC=O,inactive,inactive,inactive,inactive,inactive,inactive,inactive
CCCCCCOC(=O)CCC,inactive,inactive,inactive,inactive,inactive,inactive,inactive
CC=Cc1ccc(O)c(OC)c1,inactive,inactive,inactive,active,inactive,inactive,inactive
O=C1CCCCCCCCCCCC(=O)OCCO1,inactive,inactive,inactive,inactive,inactive,inactive,inactive
CCC=CCCO,inactive,inactive,inactive,inactive,inactive,inactive,inactive
CCC1(O)C2(C)CCC(C2)C1(C)C (stereo not given),inactive,inactive,inactive,inactive,inactive,inactive,inactive
CC(C)CC(=O)O,inactive,inactive,inactive,inactive,inactive,inactive,inactive
COc1cc(C)ccc1O,inactive,inactive,inactive,inactive,inactive,inactive,inactive
CCCCCCCC=CC=O,inactive,inactive,inactive,inactive,inactive,inactive,inactive
COc1cc(C=O)ccc1O,inactive,inactive,inactive,inactive,inactive,inactive,inactive
C=CCc1ccc(OC)c(OC)c1,inactive,inactive,inactive,inactive,inactive,inactive,inactive
c1ccc(Oc2ccccc2)cc1,inactive,inactive,inactive,inactive,inactive,inactive,inactive
CCCCCC(C)=O,inactive,inactive,inactive,inactive,inactive,inactive,inactive
CC12CCC(C1)C(C)(C)C2=O (stereo not given),inactive,inactive,inactive,inactive,inactive,inactive,inactive
CC(C)(C)c1ccc(CCC=O)cc1,inactive,inactive,inactive,inactive,inactive,inactive,inactive
CC1=NC(C)SC1C (stereo not given),inactive,inactive,inactive,inactive,inactive,inactive,inactive
CC12CCC(CC1)C(C)(C)O2,inactive,inactive,inactive,inactive,inactive,inactive,inactive

# Entries of single compounds from above:
# CC1COCc2cc3c(cc21)C(C)(C)C(C)C3(C)C (stereo not given) is entered as odorant receptor agonist call [1]: active; odorant receptor agonist call [2]: active; odorant receptor agonist call [3]: active; odorant receptor agonist call [4]: active; odorant receptor agonist call [5]: active; odorant receptor agonist call [6]: active; odorant receptor agonist call [7]: active
# O=C1CCCCC1 is entered as odorant receptor agonist call [1]: inactive; odorant receptor agonist call [2]: inactive; odorant receptor agonist call [3]: inactive; odorant receptor agonist call [4]: inactive; odorant receptor agonist call [5]: inactive; odorant receptor agonist call [6]: inactive; odorant receptor agonist call [7]: inactive
